# The campaign covered roughly 320,000 compounds. About 22,000 (6.9%) were called active. Inconclusive means that the source gave no clear call. Such entries were picked first, then a sample of the others. Calls follow the shape of the dose curve; as a rule, active = well fitted inhibition curve with a large enough effect; inconclusive = small, poorly fitted or top-dose-only effect, or another doubt; inactive = no such curve, though single readings can be large or run the other way. Potencies beside an inconclusive call are fits to weak or partial responses and may not hold up.
# Assay: Primary qHTS for delayed death inhibitors of the malarial parasite plastid, 96 hour incubation
# Details: P. falciparum luciferase reporter growth; series mostly up to 28.7 µM
# Procedure, shortened: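 Cell-based qHTS: luciferase-tagged P. falciparum in erythrocytes (2% hematocrit, 0.05% parasitemia final) incubated with compounds for 96 hours, 37 C, 5% CO2; luciferase detection reagent then added and luminescence measured.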
# Potency is read from the fitted curve at half-maximal effect.
row,SMILES,Potency
1,C=CCn1c(=O)c2ccc(C(=O)NCc3ccccc3)cc2n(Cc2cccc(Cl)c2)c1=O,"inconclusive: 14.7 µM [inhibitor, partial curve, poor fit]"
2,CCn1c(=O)c([N+](=O)[O-])c(Cl)c2ccccc21,"inconclusive: 13.1 µM [inhibitor, partial curve, poor fit]"
3,c1ccc2[nH]c(CCCc3nc4ccccc4[nH]3)nc2c1,active: 13.1 µM
4,CC12CCC(O)CC1=CCC1C2CCC2(C)C1CCC21CCC(=O)O1 (centres undefined),"inconclusive: 18.5 µM [inhibitor, single point]"
5,CC(=O)C1=C(O)C(=O)N(c2ccc(S(=O)(=O)Nc3nccs3)cc2)C1c1ccc(F)cc1 (centres undefined),"inconclusive: 11.7 µM [inhibitor, partial curve, poor fit]"
6,OCC1(CCc2ccccc2)CCCN(C/C=C/c2ccccc2)C1 (centres undefined),"inconclusive: 1.85 µM [inhibitor, partial curve]"
7,O=C(Nc1cccn(Cc2c(Cl)cccc2Cl)c1=O)c1ccc(Cl)cc1,"inconclusive: 18.5 µM [inhibitor, single point]"
8,N#Cc1cc2c(nc1SCC(=O)Nc1cc(Cl)ccc1Cl)C1CCN2CC1,"inconclusive: 18.5 µM [inhibitor, single point]"
9,O=[N+]([O-])c1cccc(-c2nnc(-c3ccccc3F)o2)c1,"inconclusive: 18.5 µM [inhibitor, single point]"
10,CCn1c(-c2ccccc2)c(C(=O)CC#N)c2ccccc21,"inconclusive: 18.5 µM [inhibitor, single point]"
11,CCN(CC(=O)NC(C)(C)C)C(=O)C(c1ccccc1)c1ccccc1,inactive
12,Cc1nn(C)c(C)c1CNC(=O)c1nn2c(c1Cl)NC(c1cccs1)CC2C(F)(F)F (centres undefined),inactive
13,CCOc1ccc(C(=O)Nc2ccc(N3CCN(S(C)(=O)=O)CC3)cc2)cc1[N+](=O)[O-],active: 9.28 µM
14,Cc1ccc2[nH]c(CN3CCN(C)C(CCO)C3)c(C)c2c1 (centres undefined),"inconclusive: 10.4 µM [inhibitor, single point]"
15,COc1ccc(C(=O)Nc2cc3c(cc2C#N)OCO3)cc1S(=O)(=O)N1CCN(C)CC1,"inconclusive: 16.5 µM [inhibitor, partial curve, poor fit]"
16,CCCS(=O)(=O)N1CCC(C(=O)NC2CCCC(C)C2C)CC1 (centres undefined),active: 9.28 µM
17,Cc1c[nH]c2cccc(OCC(CNC(C)(C)C)OC(=O)c3ccccc3)c12 (centres undefined),"inconclusive: 9.28 µM [inhibitor, single point]"
18,CCc1ccc(NS(=O)(=O)c2cc3c4c(c2)CCN4C(=O)CC3)cc1,"inconclusive: 8.28 µM [inhibitor, partial curve]"
19,COc1ccc(C(C(=O)NC2CCCC2)N(C(=O)c2snc(C(N)=O)c2N)c2cccc(O)c2)cc1 (centres undefined),inactive
20,COc1ccc(NC(=O)c2ccc(C#CC(C)(C)O)cc2)cc1,"inconclusive: 0.928 µM [inhibitor, full curve, poor fit]"
21,Cc1ccc(OCc2cc(C(=O)N(CCO)Cc3cccs3)no2)cc1C,inactive
22,CC(=O)n1cc([C@@H]2C=C(C(=O)Nc3ccccc3)O[C@H](OCc3ccc(CO)cc3)C2)c2ccccc21,active: 5.86 µM
23,O=C(NC1CC1)C1=C[C@@H](C2CCCCC2)C[C@@H](OCc2ccc(CO)cc2)O1,"inconclusive: 18.5 µM [inhibitor, single point]"

# Grouped by structure, the compounds so far containing a nitro group on carbon (three)
row,SMILES,Potency
2,CCn1c(=O)c([N+](=O)[O-])c(Cl)c2ccccc21,"inconclusive: 13.1 µM [inhibitor, partial curve, poor fit]"
9,O=[N+]([O-])c1cccc(-c2nnc(-c3ccccc3F)o2)c1,"inconclusive: 18.5 µM [inhibitor, single point]"
13,CCOc1ccc(C(=O)Nc2ccc(N3CCN(S(C)(=O)=O)CC3)cc2)cc1[N+](=O)[O-],active: 9.28 µM

# Rewritten as tab-separated lines: 3 of the compounds above.
row	SMILES	Potency
17	Cc1c[nH]c2cccc(OCC(CNC(C)(C)C)OC(=O)c3ccccc3)c12 (centres undefined)	inconclusive: 9.28 µM [inhibitor, single point]
18	CCc1ccc(NS(=O)(=O)c2cc3c4c(c2)CCN4C(=O)CC3)cc1	inconclusive: 8.28 µM [inhibitor, partial curve]
19	COc1ccc(C(C(=O)NC2CCCC2)N(C(=O)c2snc(C(N)=O)c2N)c2cccc(O)c2)cc1 (centres undefined)	inactive

# (list continues)

row,SMILES,Potency
1,COc1cccc(NC(=O)N(CCCN2CCOCC2)C(C)c2cc3ccccc3o2)c1 (centres undefined),active: 11.7 µM
2,O=C(COc1ccccc1Cl)c1ccc[nH]1,inactive
3,O=C(CCNS(=O)(=O)c1ccc2[nH]c(=O)oc2c1)NCc1ccc(F)cc1,inactive
4,COc1ccc(/C(C)=N/NC(=O)c2ccccc2N)cc1,active: 3.7 µM
5,COc1ccc(CC(=O)Nc2ccc(S(=O)(=O)N3CCCCC3)cc2)cc1OC,inactive
6,CCCCN(C)C(=O)CCC(=O)NNc1nc2ccccc2c2nc(C)nn12,"inconclusive: 11.7 µM [inhibitor, single point]"
7,Cc1ccc(NC(=O)c2cccs2)cc1NC(=O)c1cccc(F)c1,"inconclusive: 3.29 µM [inhibitor, single point]"
8,Fc1ccc(C(OCCN2CCCC2)c2ccc(Br)cc2)cc1 (centres undefined),"inconclusive: 18.5 µM [inhibitor, single point]"
9,CC1CN(CC(=O)c2ccccc2Cl)CC(C)O1 (centres undefined),inactive
10,COc1ccc(CCC(C)Nc2ccc(F)cc2)cc1 (centres undefined),inactive
11,CCCCCCOC(=O)C(C#N)c1nc2ccccc2nc1N1CCN(CC)CC1 (centres undefined),"inconclusive: 8.28 µM [inhibitor, partial curve, poor fit]"
12,Cc1onc(-c2c(Cl)cccc2Cl)c1C(=O)n1nnc2ccccc21,inactive
13,CCc1nnc(SCC(=O)N2CCCC(N3CCN(c4ccccc4C)CC3)C2)o1 (centres undefined),"inconclusive: 10.4 µM [inhibitor, single point]"
14,O=C(NCC1CCCCC1)C1(CC2CC(c3cccc(Br)c3)=NO2)CCNCC1 (centres undefined),"inconclusive: 11.7 µM [inhibitor, single point]"
15,COCCn1c(SCc2nc3scc(-c4ccc(Cl)cc4)c3c(=O)[nH]2)nnc1-c1cccc(C)c1,"inconclusive: 13.1 µM [inhibitor, partial curve, poor fit]"
16,CCCn1c(=O)c(C(=O)Nc2cc(C)ccn2)c(O)c2ccccc21,inactive
17,COc1ccc([C@H]2[C@@H]3C=CCC[C@@]3(C)C(=O)N2Cc2ccccc2)cc1Cl,"inconclusive: 18.5 µM [inhibitor, single point]"
18,CCCNC(=O)c1ccc(N2CCC3(CC2)CC(c2cccc(Br)c2)=NO3)c(NC(=O)c2cccc(C)c2)c1,"inconclusive: 11.7 µM [inhibitor, single point]"
19,CCN(CC)CCOc1ccccc1OC,inactive
20,O=S(=O)(Cc1cc(NCc2ccccc2)nc(-c2ccccn2)n1)c1ccccc1,active: 8.28 µM
21,CCN(C(=O)c1ccc2c(=O)n3c(nc2c1)CCCCC3)c1ccc(F)cc1,"inconclusive: 11.7 µM [inhibitor, single point]"
22,O=C1N=C(N2CCN(c3ccccc3)CC2)SC1Cc1ccccc1 (centres undefined),"inconclusive: 0.657 µM [inhibitor, full curve, poor fit]"
23,Cc1nn(Cc2c(Cl)cccc2Cl)c(C)c1NC(=O)c1sc2ccccc2c1Cl,"inconclusive: 14.7 µM [inhibitor, partial curve, poor fit]"

row,SMILES,Potency
1,Cc1cc(C)c(S(=O)(=O)NCCCN2CCOCC2)cc1Br,"inconclusive: 9.28 µM [inhibitor, partial curve]"
2,COc1cc(OC)c(N2CC(C(=O)NCCC3=CCCCC3)CC2=O)cc1Cl (centres undefined),"inconclusive: 11.7 µM [inhibitor, partial curve, poor fit]"
3,COC(=O)c1ccc(N2C(=O)CC(Sc3n[nH]c(C)n3)C2=O)cc1 (centres undefined),inactive
4,COc1cccc(C(=O)N2CCn3c2nc2ccccc23)c1,"inconclusive: 2.62 µM [inhibitor, partial curve, poor fit]"
5,CN(C)c1nnnn1-c1ccc(Oc2ncc(C(F)(F)F)cc2Cl)cc1,"inconclusive: 18.5 µM [inhibitor, single point]"
6,CCN(CC)CCOC(=O)c1ccccc1Br,"inconclusive: 10.4 µM [inhibitor, single point]"
7,CCn1c(SCc2ccc(Cl)cc2)nc2nc3c(cc2c1=O)CCCC3,"inconclusive: 0.586 µM [inhibitor, full curve, poor fit]"
8,COc1cccc(C2c3[nH]c4ccccc4c3C[C@H]3C(=O)N(CCCCCO)CC(=O)N23)c1 (some centres undefined),"inconclusive: 18.5 µM [inhibitor, single point]"
9,Cc1cc2nc(C)c(Cl)c(=O)n2[nH]1,inactive
10,COCCCC1CCN(C(=O)C2CCC(=O)N(C3CCCCCC3)C2)CC1 (centres undefined),inactive
11,Cc1ccc(S(=O)(=O)N2CCN(C(=O)C(C)Cn3cncn3)CC2)cc1 (centres undefined),inactive
12,CCOc1cccc(NC(=O)C2CC(=O)N(C)C(=Nc3ccccc3)S2)c1 (centres undefined),active: 3.7 µM
13,CCOC(=O)C1CCN(C(=O)c2ccc3c(=O)n4c(nc3c2)CCCCC4)CC1,"inconclusive: 0.0738 µM [inhibitor, full curve, poor fit]"
14,CCC(Oc1ccccc1)C(=O)N1CCN(S(=O)(=O)c2ccccc2)CC1 (centres undefined),inactive
15,CCS(=O)(=O)Nc1cc(OC)c(OC)cc1Cc1nccc2cc(OC)c(OC)cc12,inactive
16,CCOc1c(Br)cc(CNc2ccc(N3CCOCC3)cc2)cc1OC,"inconclusive: 4.15 µM [inhibitor, single point]"
17,CC1CCc2sc(C(=O)NCC(C)(C)N3CCOCC3)cc2C1 (centres undefined),"inconclusive: 18.5 µM [inhibitor, single point]"
18,COc1cc(C)c(Br)cc1S(=O)(=O)NCc1cccs1,inactive
19,COc1ccc(OC)c(NC(=O)CSc2nc(=O)n(Cc3ccccn3)c3c2CCC3)c1,"inconclusive: 9.28 µM [inhibitor, single point]"
20,C=CCn1c(CNC(=O)c2ccco2)nnc1SCC(=O)N1c2ccccc2Sc2ccccc21,"inconclusive: 13.1 µM [inhibitor, partial curve, poor fit]"
21,COc1ccc([C@]23Cc4cc(OC)c(OC)cc4C(O2)C2=C(CC(C)(C)CC2=O)O3)cc1,"inconclusive: 4.26 µM [inhibitor, single point]"
22,CCc1nnc(NS(=O)(=O)c2ccc(NCc3cc(Cl)cc(Cl)c3O)cc2)s1,"inconclusive: 1.65 µM [inhibitor, partial curve, poor fit]"
23,CCC1=C(OC(=O)N(CC)CC)N2C(=O)OC(=NCc3ccccc3)[C@]2(C)[C@H]2C1=CC[C@H]1C(=O)N(CC)C(=O)[C@H]12,"inconclusive: 18.5 µM [inhibitor, single point]"
